# Primary screen of a compound library

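Phenotypic screen: M. tuberculosis growth, glucose 7H9 medium, 3 days; the read-out is not stated. Compounds at 50 µM. The record gives no direction; compounds that gave an IC50 in retests scored well above the rest, so higher reads as more growth inhibition. Of about 69,000 compounds tested this way, about 760 (1.1%) reached 50% or more in at least one test.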

Values are the deposited “Percent Effect”, in %.
The record does not define 0% and 100%; most values in the screen are far below 50% and negative numbers occur (in some assays of this library far below -100).
Compounds were drawn at random from those tested, without regard to their results.
Two or more numbers in one place are separate tests of the same structure; such repeats can differ widely.

With CN(C)CCNCCC(Cc1ccccc1)C1CCOC(C)(C)C1.O=C(O)C(=O)O (stereo unspecified) the screen gave 1.243% and -14.2%. CC(C)c1nnc2sc(CC3CCS(=O)(=O)C3)nn12 (stereo unspecified) read 4.081%. With O=C(CCS(=O)(=O)c1ccccc1)NC1CCOC2(CCOCC2)C1 (stereo unspecified) the screen gave -4.254% and 3.976%. Result for CCCc1nc(CN2CCCC2Cn2cncn2)no1 (stereo unspecified) was 4.997%. COCCN1Cc2nccn2CC(COCc2csc(C)n2)C1.O=C(O)C(F)(F)F.O=C(O)C(F)(F)F (stereo unspecified) gave 5.589%. Cc1ccccc1S(=O)(=O)N(C)[C@@H]1CC[C@@H](n2ccnc2C)[C@@H]1O read 35.91%. O=C(NCc1nncn1C1CC1)Nc1ccc(OC2CCC2)c(F)c1 read 4.639%.

Result for Cn1nccc1C(=O)N1CCCN(CCCc2ccccc2)CC1 was 10.53%. CNc1nc(CNC(=O)Nc2cccc(-c3nnco3)c2)cs1 read 15.55%. With COCCC(=O)NCCCOC1CCCc2ccccc21 (stereo unspecified) the screen gave -2.155% and 1.454%. Cn1cc(CN(C(=O)c2ccc(O)c(Cl)c2)C2CC2)cn1 read -1.636%. C[S+]([O-])c1nncn1CCc1ccccc1 (stereo unspecified) read 18.89%. CCN(CCC1CCN(C(=O)NCc2nncn2CC)CC1)CC1CC1 gave -31.24%. COCCn1c(=O)n(Cc2cccc(F)c2F)c2cc(C(=O)O)ccc21 read -11.99% and -13.17%.

With CCCS(=O)(=O)NCCn1ccc(-c2cccs2)n1 the screen gave -14.78%. Cn1ncnc1CNC(=O)N(CCCO)C1CCc2ccccc21 (stereo unspecified) read 15.42%. Result for N#Cc1ccc(CCC(=O)N2CCC(CN3CCOCC3)CC2)cc1 was -2.135%. Cn1cc(Br)c(C(=O)NCCCn2cc(Cl)cn2)n1 read 29.59%. O=C(c1cn(CC(=O)N2CCCCC2)c2ccccc12)C1CC1 gave -34.82%. O=C(O)C(F)(F)F.O=C(O)C(F)(F)F.[H][C@@]12CCN(c3ncccn3)[C@]1([H])CC[C@H](C(=O)NCc1cccnc1)O2 gave -25.3%. With CC(C)CCN(C(=O)CCn1cc(S(N)(=O)=O)cn1)C1CC1 the screen gave 5.041%.

For CCNC(=O)[C@@H]1C[C@@H](NC(=O)c2ccc(C)s2)CN1Cc1ccccn1 the result was -3.956%. O=C(CN(Cc1cccs1)C1CCS(=O)(=O)C1)NCC1CCCCC1 (stereo unspecified) gave 6.758%. With CCOCC(=O)NCC(Cc1cccc(F)c1)N1CCCCC1=O (stereo unspecified) the screen gave -14.8%. CN(C)c1cc(NCc2cnc3n2CCN(CC2CC2)CC3)ncn1.O=C(O)C(F)(F)F read -1.115% and -3.281%. Result for Cn1ncc(Cl)c1C(=O)NCCN1CCC(O)(c2ccc(F)cc2)CC1 was -12.74%. CCn1c2c(ccc1=O)CC(N)CC2 (stereo unspecified) gave -38.71%. CC[C@H](C)[C@H](N)C(=O)N1CC(=O)c2sc(NC3CCCCC3)nc2C1 read 1.98%.

With CC(C)c1nc(-c2cc(C(=O)NCCCO)c3ccccn23)cs1 the screen gave 39.42% and 16.57%. For Fc1cccc(-c2nc(CN3CCOC(Cn4cccn4)C3)co2)c1 (stereo unspecified) the result was 22.61%. CSCCC(C)NC(=O)N(C)Cc1cc(Cl)cn1C (stereo unspecified) gave 17.2%. Cc1cc(-c2ccccc2C(=O)O)nc(C2CCCCN2C)n1 (stereo unspecified) read 17.54%. For CN(C)C(=O)Cn1ccc2cc(NC(=O)N3CCSCC3)ccc21 the result was -20%. COCCCn1ccc(NS(=O)(=O)c2cc(C)c(F)cc2F)n1 gave -6.926%. Result for Cc1nnc2n1CCN(Cc1csc(CC(=O)N(C)C)n1)C2 was -9.03%.

For CC(C)CCn1cc(C(=O)NC2CCS(=O)(=O)C2)c2ccccc2c1=O (stereo unspecified) the result was 20.32%. CC(Nc1c(F)cc(C#N)cc1F)c1cccc(S(N)(=O)=O)c1 (stereo unspecified) read 33.27%. For O=C(C1CCCO1)N1CCC2(CC1)CNCCO2 (stereo unspecified) the result was -2.6% and -29.86%. For [H][C@@]12CN(C(=O)c3cnc(C)cn3)C[C@]1([H])C(=O)N(Cc1cccc(F)c1)C2 the result was 2.752%. Result for O=C1CCN(C(=O)CCc2cc(Br)cs2)CCN1 was 16.03%. For COc1cccc(C2CCN(c3ccc4cc[nH]c4n3)C2)c1OC (stereo unspecified) the result was 39.9%. For CCCn1c(N2CCCCC2)nc2c(C)nn(C)c2c1=O the result was -37.89%.

For [H][C@]12CN(Cc3c[nH]nc3-c3ccccc3)C[C@]1([H])N(CCOC)C(=O)CO2 the result was 27.03%. For CC(NC(=O)NCCn1ccnc1)c1ccc2c(c1)NC(=O)CO2 (stereo unspecified) the result was -12.15%. Cl.O=C(Nc1ccccc1)C1=NOC2(CCNCC2)C1 read 4.665%. Cc1noc(C)c1CNC(=O)N1CCCC(C)CC1 (stereo unspecified) gave -11.68%. Result for Cc1cc(N2CCN(Cc3ccnn3C)CC2)cc(C2CCCN2)n1.Cl (stereo unspecified) was -10.75%. For O=C(Cn1cccnc1=O)NC(Cc1ccsc1)c1nccs1 (stereo unspecified) the result was 0.477%. Cc1cnn(C2CN(Cc3nc(-c4ccsc4)no3)C2)c1 gave 14.66%.

O=C(O)C1CCN(c2ccc(Sc3ccc(Br)cc3)nn2)CC1 gave -36.11%. CN(Cc1ccncc1)Cc1nccn1Cc1ccccc1 gave 12.64%. Result for O=C1NCCN1C1CCN(Cc2nc(-c3ccsc3)no2)CC1 was 9.911%.

The first 3 entries again:

Compound,Percent Effect
CN(C)CCNCCC(Cc1ccccc1)C1CCOC(C)(C)C1.O=C(O)C(=O)O (stereo unspecified),1.243 and -14.2
CC(C)c1nnc2sc(CC3CCS(=O)(=O)C3)nn12 (stereo unspecified),4.081
O=C(CCS(=O)(=O)c1ccccc1)NC1CCOC2(CCOCC2)C1 (stereo unspecified),-4.254 and 3.976

From ChEMBL document CHEMBL3988442, “University of Dundee, Small-Polar-MMV Screening Library” (2021).